Here are results for two molecules from publication PMC8670036.

Sequences of proteins named here, by UniProt entry; tags and fusion partners are left off.
UniProt Q13263: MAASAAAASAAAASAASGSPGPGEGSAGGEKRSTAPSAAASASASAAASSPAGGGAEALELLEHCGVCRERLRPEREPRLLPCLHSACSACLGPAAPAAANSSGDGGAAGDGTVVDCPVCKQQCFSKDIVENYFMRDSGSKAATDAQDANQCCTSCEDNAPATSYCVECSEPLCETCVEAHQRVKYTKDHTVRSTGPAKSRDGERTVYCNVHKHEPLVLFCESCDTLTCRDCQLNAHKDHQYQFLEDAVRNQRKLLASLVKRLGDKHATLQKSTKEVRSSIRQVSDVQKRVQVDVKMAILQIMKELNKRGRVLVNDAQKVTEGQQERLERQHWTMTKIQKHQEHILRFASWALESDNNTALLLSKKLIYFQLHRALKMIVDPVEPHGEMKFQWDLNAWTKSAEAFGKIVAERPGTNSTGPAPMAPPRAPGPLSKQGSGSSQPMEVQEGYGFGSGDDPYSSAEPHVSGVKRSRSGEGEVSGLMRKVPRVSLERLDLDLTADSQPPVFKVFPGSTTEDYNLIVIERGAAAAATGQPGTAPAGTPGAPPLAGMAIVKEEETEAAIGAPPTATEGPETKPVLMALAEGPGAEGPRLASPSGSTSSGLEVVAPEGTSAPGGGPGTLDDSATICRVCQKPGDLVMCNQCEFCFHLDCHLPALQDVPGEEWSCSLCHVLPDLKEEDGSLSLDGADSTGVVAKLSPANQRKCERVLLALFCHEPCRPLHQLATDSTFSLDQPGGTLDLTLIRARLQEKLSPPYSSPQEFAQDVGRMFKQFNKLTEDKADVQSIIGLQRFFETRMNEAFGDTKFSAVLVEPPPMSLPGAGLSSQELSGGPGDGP

No constants are given. Whether binding was seen depends on the method and setting. Binding seen in cells or lysates may run through a third protein. Some results given as binding are weak or reduced against the parent protein; the word gives no strength. For some assays here: Sequences can lack the tags named with a protein.

For assay [1], the target named is T1, HA-tagged Tas (prototype foamy virus (PFV)) (UniProt P14353).
T1 sequence: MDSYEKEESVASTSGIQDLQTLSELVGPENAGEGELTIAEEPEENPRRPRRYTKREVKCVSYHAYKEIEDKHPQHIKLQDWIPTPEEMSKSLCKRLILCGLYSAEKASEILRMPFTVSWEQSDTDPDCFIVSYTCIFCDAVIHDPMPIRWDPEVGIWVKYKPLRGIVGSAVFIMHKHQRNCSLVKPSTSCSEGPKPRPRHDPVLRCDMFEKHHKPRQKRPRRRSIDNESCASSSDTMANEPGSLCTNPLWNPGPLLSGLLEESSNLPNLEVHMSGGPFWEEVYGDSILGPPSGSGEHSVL
The assay is described as follows: co-IP.

In assay [2] the target is Tripartite motif-containing protein 28 (Trim28), endogenous (human (endogenous in HT1080)) (UniProt Q13263). The assay is described as follows: co-IP; HT1080 cells infected with PFV for 48 h; lysate immunoprecipitated with anti-Trim28 antibody (control IgG); blot anti-Tas and anti-Trim28; NP-40 lysis buffer with 150 mM NaCl, washes with 500 mM NaCl.

Consider Flag-Trim28 (from UniProt Q13263 1-835), for which, in assay [1], the binding entry was “binds”.

B1: Prototype foamy virus (PFV) transcriptional transactivator Tas, expressed from the infecting virus (protein, UniProt P14353 1-300)
chain: T1 sequence
For B1, the binding entry in assay [2] was “binds”.
